Experimental data taken from the supplement of paper PMC6658780.
Counter-ions that a name gives are not always drawn. ± gives the standard deviation of the averaged measurements. The list shows a part of the results. Single values are uncertain here, since repeats match poorly.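 The A. baumannii strains are clinical isolates chosen because they resist the partner antibiotic, and the screen looks for drugs that restore that antibiotic's effect. The reading at the start of incubation is subtracted to remove background from coloured compounds.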

Tested on: Acinetobacter baumannii WP-487
Assay: percent growth inhibition of drug + antibiotic vs DMSO control; higher = more growth inhibition
Settings: antibiotic (0.125x MIC): colistin

## Clc1ccc(C(c2ccccc2Cl)C(Cl)Cl)cc1 (stereo not drawn) [Mitotane]
7 µM
  percent growth inhibition: 3.31 ± 7.1%
20 µM
  percent growth inhibition: 52.6 ± 64%

## Oc1c(I)cc(Cl)c2cccnc12 [Clioquinol]
7 µM
  percent growth inhibition: 71.8 ± 40%
20 µM
  percent growth inhibition: 99.64 ± 0.68%

## CC(NCCC(c1ccccc1)c1ccccc1)c1ccccc1 (stereo not drawn) [Fendiline hydrochloride]
7 µM
  percent growth inhibition: 45.6 ± 51%
20 µM
  percent growth inhibition: 54.9 ± 52%

## Clc1ccc(C(Cn2ccnc2)OCc2ccsc2Cl)c(Cl)c1 (stereo not drawn) [Tioconazole]
7 µM
  percent growth inhibition: 55.2 ± 52%
20 µM
  percent growth inhibition: 61.5 ± 45%

## CO[C@@H]1[C@@H](O[C@@H]2O[C@H](C)[C@@H](O[C@H]3C[C@@](C)(O)[C@@H](OC(=O)CC(C)C)[C@H](C)O3)[C@H](N(C)C)[C@H]2O)[C@@H](CC=O)C[C@@H](C)[C@@H](O)/C=C/C=C/C[C@@H](C)OC(=O)C[C@H]1OC(C)=O [Josamycin]
7 µM
  percent growth inhibition: 55.6 ± 51%
20 µM
  percent growth inhibition: 66.8 ± 38%

## CO[C@H]1C[C@H](O[C@H]2[C@H](C)[C@@H](O[C@@H]3O[C@H](C)C[C@H](N(C)C)[C@H]3OC(C)=O)[C@@H](C)C[C@@]3(CO3)C(=O)[C@H](C)[C@@H](OC(C)=O)[C@@H](C)[C@@H](C)OC(=O)[C@@H]2C)O[C@@H](C)[C@@H]1OC(C)=O [Troleandomycin]
7 µM
  percent growth inhibition: 54.5 ± 52%
20 µM
  percent growth inhibition: 58.8 ± 48%

## C#C[C@]1(O)CC[C@H]2[C@@H]3CCC4=Cc5oncc5C[C@]4(C)[C@H]3CC[C@@]21C [Danazol]
7 µM
  percent growth inhibition: -0.00251 ± 15%
20 µM
  percent growth inhibition: 47.5 ± 74%

## O=C1CN(/N=C/c2ccc([N+](=O)[O-])o2)C(=O)N1 [Nitrofurantoin]
7 µM
  percent growth inhibition: 0.285 ± 0.36%
20 µM
  percent growth inhibition: 55.6 ± 50%

## CCN(CC)CCOc1ccc(C(=C(Cl)c2ccccc2)c2ccccc2)cc1 [Clomiphene citrate (Z,E)]
7 µM
  percent growth inhibition: 51 ± 57%
20 µM
  percent growth inhibition: 60.5 ± 46%
